Measured data: PubChem BioAssay AID1259308 (NCATS, 2017)
This is a random part of about 59,000 reagents tested. Of all reagents, about 1,510 (2.6%) got an active call. 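Calls use total luciferase alone and ignore viability, so some active siRNAs may act by altering cell number.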 A number with no mark means an inactive call. The numbers tell different reagents against one gene apart.

Test: 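Genes whose loss raises luciferase production in HEK293 cells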 (primary screen)
Cell system: human HEK293 embryonic kidney cells stably expressing firefly luciferase (HEK-CMV-Luc2-Hygro)
Reagent: single siRNA against human genes, 0.8 pmol siRNA per well
Duration: 72 h
Measurement: 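Luciferase light (ONE-Glo) measured on one replicate plate set and viability (CellTiter-Glo) on the other, scaled to a negative control siRNA, with robust z-scores and luciferase per cell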
Direction: total luciferase, z-score and total luciferase, % of control: higher = more reporter protein produced; luciferase per cell, z-score: higher = more reporter output per viable cell; viable cells, % of control: higher = more viable cells
Rule for the call: 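Active when the median/MAD z-score for overall luciferase is greater than 3; a gene was taken forward for validation with new siRNAs if at least two of its three siRNAs passed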
Meaning of the calls: active = raised luciferase; inactive = no rise

no.	gene symbol	reagent no.	total luciferase, z-score	total luciferase, % of control	luciferase per cell, z-score	viable cells, % of control
1	CACNB3 (calcium voltage-gated channel auxiliary subunit beta 3)	1	0.22	86.3	0.475	85.1
2	CACNB3 (calcium voltage-gated channel auxiliary subunit beta 3)	2	-0.0723	80.4	-0.294	97.1
3	CACNB3 (calcium voltage-gated channel auxiliary subunit beta 3)	3	-1.29	56.2	-1.12	84.2
4	ZNF487 (zinc finger protein 487)	1	0.406	90	-0.215	106
5	ZNF487 (zinc finger protein 487)	2	-0.0906	80.1	-0.239	95.3
6	ZNF487 (zinc finger protein 487)	3	1.09	103	0.494	102
7	HS6ST1P1 (heparan sulfate 6-O-sulfotransferase 1 pseudogene 1)	1	1.06	103	0.565	99.1
8	HS6ST1P1 (heparan sulfate 6-O-sulfotransferase 1 pseudogene 1)	2	-0.425	73.4	0.346	74.9
9	HS6ST1P1 (heparan sulfate 6-O-sulfotransferase 1 pseudogene 1)	3	0.859	99	0.637	93.5
10	HS6ST1P1 (heparan sulfate 6-O-sulfotransferase 1 pseudogene 1)	4	0.443	90.7	1.37	70.6
11	HS6ST1P1 (heparan sulfate 6-O-sulfotransferase 1 pseudogene 1)	5	-1.52	51.7	-1.73	91.3
12	HS6ST1P1 (heparan sulfate 6-O-sulfotransferase 1 pseudogene 1)	6	0.507	92	0.75	84.4
13	KLK5 (kallikrein related peptidase 5)	1	0.735	96.5	0.0394	107
14	KLK5 (kallikrein related peptidase 5)	2	1.58	113	1.65	82
15	KLK5 (kallikrein related peptidase 5)	3	0.925	100	1.28	80
16	OTOGL (otogelin like)	1	-0.178	78.4	-0.123	90.4
17	OTOGL (otogelin like)	2	-1.04	61.2	-0.474	77.5
18	OTOGL (otogelin like)	3	0.603	93.9	0.00352	105
19	IFT43 (intraflagellar transport 43)	1	0.809	98	0.244	103
20	IFT43 (intraflagellar transport 43)	2	-0.254	76.8	-0.592	100
21	IFT43 (intraflagellar transport 43)	3	-0.189	78.1	-0.525	100
22	CHST4 (carbohydrate sulfotransferase 4)	1	0.526	92.4	0.461	91.4
23	CHST4 (carbohydrate sulfotransferase 4)	2	-0.0395	81.1	2.45	47.6
24	CHST4 (carbohydrate sulfotransferase 4)	3	0.307	88	-0.472	111

A few values from the entries so far:
CACNB3 (calcium voltage-gated channel auxiliary subunit beta 3) #2, luciferase per cell, z-score: -0.294
IFT43 (intraflagellar transport 43) #1, viable cells, % of control: 103
KLK5 (kallikrein related peptidase 5) #1, viable cells, % of control → 107
